Measured values reported in PMC4669772, “The conserved Trp114 residue of thioredoxin reductase 1 has a redox sensor-like function triggering oligomerization and crosslinking upon oxidative stress related to cell death” (Cell Death & Disease, 2015).
These are yes or no findings as the source states them, for the method shown. For some of these results: Binding seen in cells or lysates may run through a third protein. Some entries that bind do so weakly or less than the wild type. For some of these results: Tags and fused reporters may be left off the sequences shown.

Key:
[1] = target: thioredoxin reductase 1 (TrxR1), endogenous in HCT116 cells (human (endogenous in HCT116)) (UniProt Q16881); assay: cross-linking; covalent crosslinking of TrxR1 subunits on treatment of cells with iron-triapine; data not shown
[2] = target: thioredoxin reductase 1 (TrxR1), endogenous in HCT116 cells (human (endogenous in HCT116)) (UniProt Q16881); assay: SEC; gel filtration of crude protein lysates of HCT116 cells (control, RITA, NDGA+RITA); fractions analysed for TrxR activity and by western blot of reducing SDS-PAGE
[3] = target: thioredoxin reductase 1 (TrxR1), endogenous in HCT116 cells (human (endogenous in HCT116)) (UniProt Q16881); assay: cross-linking; covalent ≈110 kDa TrxR1 species resistant to reducing SDS-PAGE, formed in HCT116 cells treated with 1 μM RITA for 8 h; western blot of lysates; immunoprecipitation with anti-TrxR1 19A1, Coomassie-stained band, tryptic digest and MALDI-TOF-MS
[4] = target: N-terminally FLAG-tagged human wild-type TrxR1 (human) (UniProt Q16881); assay: cross-linking; covalently linked TrxR1 species on reducing SDS-PAGE of lysates of HCT116 cells transfected with FLAG-tagged human TrxR1 variants, treated with 1 μM RITA for 8 h (with or without 50 μM NDGA); immunoblot with anti-TrxR1 or anti-FLAG

| Binder | binding [1] | binding [2] | binding [3] | binding [4] |
| --- | --- | --- | --- | --- |
| thioredoxin reductase 1 (TrxR1), endogenous in HCT116 cells (enzyme, UniProt Q16881-5 1-499, selenocysteine (Sec, U) at 498) MNGPEDLPKSYDYDLIIIGGGSGGLAAAKEAAQYGKKVMVLDFVTPTPLGTRWGLGGTCVNVGCIPKKLMHQAALLGQALQDSRNYGWKVEETVKHDWDRMIEAVQNHIGSLNWGYRVALREKKVVYENAYGQFIGPHRIKATNNKGKEKIYSAERFLIATGERPRYLGIPGDKEYCISSDDLFSLPYCPGKTLVVGASYVALECAGFLAGIGLDVTVMVRSILLRGFDQDMANKIGEHMEEHGIKFIRQFVPIKVEQIEAGTPGRLRVVAQSTNSEEIIEGEYNTVMLAIGRDACTRKIGLETVGVKINEKTGKIPVTDEEQTNVPYIYAIGDILEDKVELTPVAIQAGRLLAQRLYAGSTVKCDYENVPTTVFTPLEYGACGLSEEKAVEKFGEENIEVYHSYFWPLEWTIPSRDNNKCYAKIICNTKDNERVVGFHVLGPNAGEVTQGFAAALKCGLTKKQLDSTIGIHPVCAEVFTTLSVTKRSGASILQAGCUG | binds | binds | binds | – |
| N-terminally FLAG-tagged human wild-type TrxR1 (enzyme, UniProt Q16881-5 1-499, selenocysteine (Sec, U) at 498) MNGPEDLPKSYDYDLIIIGGGSGGLAAAKEAAQYGKKVMVLDFVTPTPLGTRWGLGGTCVNVGCIPKKLMHQAALLGQALQDSRNYGWKVEETVKHDWDRMIEAVQNHIGSLNWGYRVALREKKVVYENAYGQFIGPHRIKATNNKGKEKIYSAERFLIATGERPRYLGIPGDKEYCISSDDLFSLPYCPGKTLVVGASYVALECAGFLAGIGLDVTVMVRSILLRGFDQDMANKIGEHMEEHGIKFIRQFVPIKVEQIEAGTPGRLRVVAQSTNSEEIIEGEYNTVMLAIGRDACTRKIGLETVGVKINEKTGKIPVTDEEQTNVPYIYAIGDILEDKVELTPVAIQAGRLLAQRLYAGSTVKCDYENVPTTVFTPLEYGACGLSEEKAVEKFGEENIEVYHSYFWPLEWTIPSRDNNKCYAKIICNTKDNERVVGFHVLGPNAGEVTQGFAAALKCGLTKKQLDSTIGIHPVCAEVFTTLSVTKRSGASILQAGCUG | – | – | – | binds |
